Data as given in PubChem BioAssay AID1259254 (NCATS, 2017)
The deposit covers about 59,000 reagents; shown is a random part of them. In the full data, about 1,550 (2.6%) are marked active. 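G2 share is only a proxy for re-replication; each gene was hit by three separate siRNAs, and active genes were retested.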 Reagents against one gene are numbered here. Further read-outs or replicates are left out here. Not stated in the record: the amount of reagent.

Purpose: 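Genome-wide screen for genes that prevent DNA re-replication in cancer cells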 (primary screen)
System: human HCT116 colorectal cancer cells
Knock-down reagent: single siRNA against human genes
Timing: 3 days
Read-out: 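Nuclei stained with Hoechst and imaged; cell-cycle phase assigned by DNA content; G2 share scaled per plate, non-targeting siRNA 0%, GMNN siRNA 100%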
Direction: G2 robust z-score and G2 cells, % of GMNN control: higher = more G2 cells, more excess DNA replication
Hit rule: 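Active siRNAs have a G2 robust z of 5 or more median absolute deviations over the median, which in these data means about 38% or higher of GMNN control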

KGD4 (alpha-ketoglutarate dehydrogenase subunit 4) #1 → G2 robust z-score = 2.65; G2 cells, % of GMNN control = 21.6; Outcome = inactive
KGD4 (alpha-ketoglutarate dehydrogenase subunit 4) #2 → G2 robust z-score = 2.48; G2 cells, % of GMNN control = 20.4; Outcome = inactive
KGD4 (alpha-ketoglutarate dehydrogenase subunit 4) #3 → G2 robust z-score = -0.388; G2 cells, % of GMNN control = 0.24; Outcome = inactive
PPP2R5D (protein phosphatase 2 regulatory subunit B'delta) #1 → G2 robust z-score = 3.64; G2 cells, % of GMNN control = 28.6; Outcome = inactive
PPP2R5D (protein phosphatase 2 regulatory subunit B'delta) #2 → G2 robust z-score = 2.02; G2 cells, % of GMNN control = 17.2; Outcome = inactive
PPP2R5D (protein phosphatase 2 regulatory subunit B'delta) #3 → G2 robust z-score = 0.346; G2 cells, % of GMNN control = 5.4; Outcome = inactive
PLEKHM3 (pleckstrin homology domain containing M3) #1 → G2 robust z-score = 0.984; G2 cells, % of GMNN control = 9.89; Outcome = inactive
PLEKHM3 (pleckstrin homology domain containing M3) #2 → G2 robust z-score = -0.793; G2 cells, % of GMNN control = -2.61; Outcome = inactive
PLEKHM3 (pleckstrin homology domain containing M3) #3 → G2 robust z-score = -0.939; G2 cells, % of GMNN control = -3.64; Outcome = inactive
POPDC1 (popeye domain cAMP effector 1) #1 → G2 robust z-score = 3.21; G2 cells, % of GMNN control = 25.5; Outcome = inactive
POPDC1 (popeye domain cAMP effector 1) #2 → G2 robust z-score = -0.188; G2 cells, % of GMNN control = 1.64; Outcome = inactive
POPDC1 (popeye domain cAMP effector 1) #3 → G2 robust z-score = -0.0919; G2 cells, % of GMNN control = 2.32; Outcome = inactive

2 entries already listed, ordered by “G2 robust z-score”, low to high.
PPP2R5D (protein phosphatase 2 regulatory subunit B'delta) #3 → G2 robust z-score = 0.346; G2 cells, % of GMNN control = 5.4; Outcome = inactive
PLEKHM3 (pleckstrin homology domain containing M3) #1 → G2 robust z-score = 0.984; G2 cells, % of GMNN control = 9.89; Outcome = inactive

Additional reagents follow:
BICC1 (BicC family RNA binding protein 1) #1 → G2 robust z-score = -0.795; G2 cells, % of GMNN control = -2.63; Outcome = inactive
BICC1 (BicC family RNA binding protein 1) #2 → G2 robust z-score = 1.64; G2 cells, % of GMNN control = 14.5; Outcome = inactive
BICC1 (BicC family RNA binding protein 1) #3 → G2 robust z-score = 1.57; G2 cells, % of GMNN control = 14; Outcome = inactive
OR2G2 (olfactory receptor family 2 subfamily G member 2) #1 → G2 robust z-score = 4.53; G2 cells, % of GMNN control = 34.8; Outcome = inactive
OR2G2 (olfactory receptor family 2 subfamily G member 2) #2 → G2 robust z-score = 0.819; G2 cells, % of GMNN control = 8.73; Outcome = inactive
OR2G2 (olfactory receptor family 2 subfamily G member 2) #3 → G2 robust z-score = 0.186; G2 cells, % of GMNN control = 4.28; Outcome = inactive
